± gives the standard deviation. This is a selection; strong and weak results do not stand in their true shares. The uncertainty is large for many entries.
Tested on: MILI (PIWIL2) piRISC loaded with L1MC piRNA (26 nt)
Assay: pre-steady-state target cleavage rate (min^-1); MIWI and MILI are mouse PIWI proteins and EfPiwi is from a freshwater sponge; tags in brackets are library labels; higher = faster piRNA-guided slicing of the target
Details: guide: L1MC piRNA 5'p-UAACUAAAUACUAUGCAAGCUGUAGG; auxiliary factor: 500 nM mouse GTSF1
Protocol: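 Cleave-'n-Seq: a library of target RNAs (target site embedded in constant flanks, ACAGCATTCCGCGTTAGTGATATCCG... 5' flank; DNA-blocked outside the site) at 0.1 nM was incubated with 1 nM active mouse MILI or MIWI piRISC (synthetic 5'-monophosphorylated piRNA guide) with or without 500 nM mouse GTSF1 at 33 °C for 1 min to 16 h. Uncleaved targets were sequenced and normalised to non-target controls, and the pooled three trials were fitted to a burst-and-steady-state model to give the pre-steady-state cleavage rate (min^-1; k3 is constrained to at most 1e-4). Sequence is the target site only; target names encode pairing extent (gX:gY) and contiguous / 1-mismatch / 2-mismatch / bulge geometry. Fits with R² ≤ 0 are excluded.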

Row | Sequence | pre-steady-state target cleavage rate
1 | UCCUGGAUGUGCUUGCAUAGUAUUUAGUAA | 0.246 ± 0.031
2 | UCCUGCUACAGCUUGCAUAGUAUUUAGUUC [g2:g25:cont:t1C] | 0.317 ± 0.021
3 | UCCUGGAUGUGCUUGCAAUGUAUUUAGAAA | 0.00228 ± 0.0049
4 | UCCUGGAUCAGCUUGCAUAGUAUUUCGUUA | 0.147 ± 0.034
5 | UCCUCGUACUGCUUGCAUAGUAUUUAGUUA | 0.264 ± 0.0097
6 | UCCUGGAACUCCUUGCAUAGUAUUUAGAAA | 0.162 ± 0.029
7 | UCCUGGAACAGCUUGCAAUCUAUUUAGAAA | 0.00239 ± 0.0047
8 | UCCUGGAUGUCGUUGCAUAGUAUUUUGAUA | 0.00115 ± 0.011
9 | UCCUGCUACAGCUUCAUAGUAUUUAGUUA | 0.231 ± 0.019
10 | UCCUGGUACAGGAAGCAUAGUAUUUAGUUA | 0.223 ± 0.025
11 | UCCUGGAUGAGCUAGCAUAGAAUUUAGUUA | 0.0337 ± 0.011
12 | UCCUGGAACAGCUUGGAUAGUAUUAAGUUA | 0.186 ± 0.033

Same assay, conditions: guide: L1MC piRNA 5'p-UAACUAAAUACUAUGCAAGCUGUAGG; auxiliary factor: none (no GTSF1)

Row | Sequence | pre-steady-state target cleavage rate
13 | UCCUCCUACUCCUUGCAUAGUAUUUACAAA | 0.0008 ± 0.0055
14 | UCCUGGAUGUGCUUGCAUAGUAUUUAGUAA | 0.00665 ± 0.0025
15 | UCCUGGAUGAGCUUGCAUAGUAUAUAGAAA | 0.00115 ± 0.0065
16 | UCCUGGAUGUGCUUGCAUAGUAAUAAGUUA | 0.00119 ± 0.0059
17 | UCCUCCUACAGCUUGCAUAGUAUAAAGUAA | 0.00135 ± 0.005
18 | UCCUGGAUGUGCUUGCAAUGUAUUUAGAAA | 0.00119 ± 0.0058
19 | UCCUGGAUGUCCUUGCAUACUAAUUAGUUA | 0.00135 ± 0.0046
20 | UCCUGGAUCAGCUUGCAUAGUAUUUCGUUA | 0.00354 ± 0.0024
21 | UCCUGGAUCAGCUUGCAUAGUAUUUUCUAA | 0.00108 ± 0.0059
22 | UCCUGGAACAGCUUGCAUAGUAUUUAAUUA | 0.00167 ± 0.0055
23 | UCCUGGAUGUGCUUGCAUAGCAUUUAGUUA | 0.00152 ± 0.0044
24 | UCCUCGUACUGCUUGCAUAGUAUUUAGUUA | 0.00745 ± 0.0024
25 | UCCUGGAACAGCUUGCAAUCUAUUUAGUUA | 0.00133 ± 0.0048
26 | UCCUCCUACAGCUUGCAUUCAAUUUAGAAA | 0.00015 ± 0.021
27 | UCCUGGAUGAGCUUGCAUAGUAUUUAGUCUA | 0.00246 ± 0.0033
28 | UCCUGGUACAGGAAGCAUAGUAUUUUCAAA | 0.000572 ± 0.01
29 | UCCUCCUACAGCUUGCAUACUAAUUAGUUA | 0.00185 ± 0.0032
30 | UCCUGGAACUCCUUGCAUAGUAUUUAGAAA | 0.0016 ± 0.0034
31 | UCCUGGAACAGCUUGCAAUCUAUUUAGAAA | 0.000194 ± 0.015
32 | UCCUGGAUGUCGUUGCAUAGUAUUUUGAUA | 0.000583 ± 0.0094
33 | UCCUCCUACAGCUUGGAUAGUAUUUACAAA | 0.00113 ± 0.0042
34 | UCCUGCUACAGCUUCAUAGUAUUUAGUUA | 0.00508 ± 0.0025
35 | UCCUGGUACAGGAAGCAUAGUAUUUAGUUA | 0.00538 ± 0.0026
36 | UCCUGGAUGUCCUUGCAUAGUAUAUUGUUA | 0.00196 ± 0.0039
37 | UCCUGGAUGAGCUAGCAUAGAAUUUAGUUA | 0.00157 ± 0.0037
38 | UCCUGGAUGUCCUUGCAUACUAUUAAGUUA | 0.000887 ± 0.0051
39 | UCCUGGAUGUCGAACGUAAGUAUAUAGUUA | 0.000167 ± 0.023
40 | UCCUGGAACAGCUUGGAUAGUAUUAAGUUA | 0.00183 ± 0.004

Reference: the supplement of paper PMC10338343
